Measured values taken from patent US20130096282A1.

Key:
[1] = molecular target: flagellin type A of multi-drug resistant P. aeruginosa strain PA1 (Pseudomonas aeruginosa); test: immunoblot of bacterial lysates
[2] = molecular target: flagellin type A of multi-drug resistant P. aeruginosa strain PA141 (Pseudomonas aeruginosa); test: immunoblot of bacterial lysates
[3] = molecular target: flagellin type A of multi-drug resistant P. aeruginosa strain PA409 (Pseudomonas aeruginosa); test: immunoblot of bacterial lysates
[4] = molecular target: flagellin type A of multi-drug resistant P. aeruginosa strain PA49 (Pseudomonas aeruginosa); test: immunoblot of bacterial lysates
[5] = molecular target: flagellin type B of multi-drug resistant P. aeruginosa strain PA21 (Pseudomonas aeruginosa); test: western blot of P. aeruginosa lysates
[6] = molecular target: flagellin type B of multi-drug resistant clinical P. aeruginosa isolate Ka02 (Pseudomonas aeruginosa); test: ELISA on formaldehyde-fixed whole bacteria
[7] = molecular target: flagellin type A of multi-drug resistant P. aeruginosa strain PA1 (Pseudomonas aeruginosa); test: western blot of bacterial lysates, mAb at 10 µg/ml
[8] = molecular target: flagellin type A of multi-drug resistant P. aeruginosa strain PA141 (Pseudomonas aeruginosa); test: western blot of bacterial lysates, mAb at 10 µg/ml
[9] = molecular target: flagellin type A of multi-drug resistant P. aeruginosa strain PA409 (Pseudomonas aeruginosa); test: western blot of bacterial lysates, mAb at 10 µg/ml
[10] = molecular target: flagellin type A of multi-drug resistant P. aeruginosa strain PA49 (Pseudomonas aeruginosa); test: western blot of bacterial lysates, mAb at 10 µg/ml
[11] = molecular target: flagellin type A of P. aeruginosa strain ATCC 27853 (Pseudomonas aeruginosa); test: ELISA on formaldehyde-fixed whole bacteria, mAb at 1 nM
[12] = molecular target: flagellin type B of multi-drug resistant clinical P. aeruginosa isolate Ka02 (Pseudomonas aeruginosa); test: as above
[13] = molecular target: flagellin type B of multi-drug resistant P. aeruginosa strain PA21 (Pseudomonas aeruginosa); test: immunoblot of P. aeruginosa lysates probed with LST-003, anti-human Fc peroxidase detection
[14] = molecular target: flagellin type A of multi-drug resistant P. aeruginosa strain PA1 (Pseudomonas aeruginosa); test: immunoblot of P. aeruginosa lysates probed with LST-003 at 10 µg/ml, anti-human Fc peroxidase detection
[15] = molecular target: flagellin type A of multi-drug resistant P. aeruginosa strain PA141 (Pseudomonas aeruginosa); test: as above
[16] = molecular target: flagellin type A of multi-drug resistant P. aeruginosa strain PA409 (Pseudomonas aeruginosa); test: as above
[17] = molecular target: flagellin type A of multi-drug resistant P. aeruginosa strain PA49 (Pseudomonas aeruginosa); test: as above
[18] = molecular target: flagellin type A of P. aeruginosa strain ATCC 27853 (Pseudomonas aeruginosa); test: ELISA on wells holding an equal mixture of formaldehyde-fixed PA27853 (type A) and Ka02 (type B) bacteria, mAb at 1 nM; the target within the mixture follows the filing's text, not the sheet

B1: chimeric mAb LST-003 (antibody, V domains shown)
VH: DVQLQESGPGLVKPSQSLSLPCSVTGYSITSGYYWNWIRQFPGNKLEWMGYIRYDGNNNYNPSLKNRISITHDTSKNQFFLKLNYVTTEDTATYYCARGLQFYFDSWGQGTTLTVSS
VL: DIVMSQSPSSLAVSGGEKVTMSCKSSQSLLNGSYQKHTLAWYQQKPGQSPKLLIYWASTRESGVPDRFTGSGSGTDFTLTISSVKAEDLAVYYCQQYYSYPWTFGGGTKLEIKR
- binding [1]: binds
- binding [2]: binds
- binding [3]: binds
- binding [4]: binds
- binding [5]: no binding (tested: 10 µg/ml)
- binding [6]: no binding (tested: 1 nM)
- binding [7]: binds
- binding [8]: binds
- binding [9]: binds
- binding [10]: binds
- binding [11]: binds
- binding [12]: no binding (tested: 1 nM)
- binding [13]: no binding (tested: 10 µg/ml)
- binding [14]: binds
- binding [15]: binds
- binding [16]: binds
- binding [17]: binds
- binding [18]: binds

Results are given in words; binding and its absence hold for the method and conditions named. For part of these data: A result given as binding can be weak or reduced; the word gives no strength.
